# Measurements from the supplement of paper PMC4604168 (melanoma cell lines).
# The list shows a part of the results. Repeats are few or missing, and single values can be far off.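 The apoptosis fraction was the count of cleaved-PARP antibody-stained nuclei relative to all DNA-stained nuclei, imaged in 1,536-well plates. Screening doses were set so most cells survived, and baseline and induced cleaved-PARP levels vary greatly across cell lines.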
# Columns and labels:
# Assay in all cases: cleaved PARP positive nuclei fraction relative to DMSO control; melanoma cells; higher = more apoptosis
# Conditions in all cases: library dose: low library concentration; 72 h
# [1] = test system: 501Mel
# [2] = test system: A101D
# [3] = test system: A2058
# [4] = test system: A375
# [5] = test system: C32
# [6] = test system: CBRC008 (line from a melanoma biopsy)
# [7] = test system: CBRC014 (line from a melanoma biopsy)
# [8] = test system: CBRC016 (line from a melanoma biopsy)
# [9] = test system: CBRC017 (line from a melanoma biopsy)
# [10] = test system: CBRC034 (line from a melanoma biopsy)
# [11] = test system: COLO792
# [12] = test system: COLO800
# [13] = test system: COLO829
# [14] = test system: G361
# [15] = test system: IPC-298
# [16] = test system: IST-MEL1
# [17] = test system: LB2518-MEL
# [18] = test system: LOXIMVI
# [19] = test system: MEL-HO
SMILES,cleaved PARP positive nuclei fraction [1],cleaved PARP positive nuclei fraction [2],cleaved PARP positive nuclei fraction [3],cleaved PARP positive nuclei fraction [4],cleaved PARP positive nuclei fraction [5],cleaved PARP positive nuclei fraction [6],cleaved PARP positive nuclei fraction [7],cleaved PARP positive nuclei fraction [8],cleaved PARP positive nuclei fraction [9],cleaved PARP positive nuclei fraction [10],cleaved PARP positive nuclei fraction [11],cleaved PARP positive nuclei fraction [12],cleaved PARP positive nuclei fraction [13],cleaved PARP positive nuclei fraction [14],cleaved PARP positive nuclei fraction [15],cleaved PARP positive nuclei fraction [16],cleaved PARP positive nuclei fraction [17],cleaved PARP positive nuclei fraction [18],cleaved PARP positive nuclei fraction [19]
"Cc1cc(Nc2cc(N3CCN(C)CC3)nc(/C=C/c3ccccc3)n2)n[nH]1 + CC(C)C[C@H](NC(=O)[C@H](Cc1ccccc1)NC(=O)c1cnccn1)B(O)O [Bortezomib] (first compound 0.04 µM, partner dose 0.001 µM)",599%,341%,290%,179%,66.7%,578%,128%,214%,178%,78.6%,155%,73.9%,157%,619%,213%,102%,510%,154%,80.5%
"Nc1ncn([C@H]2C[C@H](O)[C@@H](CO)O2)c(=O)n1 [decitabine] + C[C@]1(c2nc3c(C(N)=O)cccc3[nH]2)CCCN1 [Veliparib] (first compound 0.1 µM, partner dose 1.4 µM)",230%,56.4%,188%,112%,146%,139%,78.5%,82%,93.7%,88.1%,118%,125%,231%,118%,67.8%,113%,53.8%,300%,92.6%
"C[C@@H](Oc1cc(-c2cnn(C3CCNCC3)c2)cnc1N)c1c(Cl)ccc(F)c1Cl [Crizotinib] + Cc1nc(Nc2ncc(C(=O)Nc3c(C)cccc3Cl)s2)cc(N2CCN(CCO)CC2)n1 [dasatanib] (first compound 0.2 µM, partner dose 0.004 µM)",60.5%,282%,141%,177%,94.3%,58.6%,102%,101%,90.4%,172%,146%,103%,174%,115%,91.2%,99.9%,60.3%,62.6%,88.2%
"O=C(O)c1ccc2c(c1)nc(Nc1cccc(Cl)c1)c1ccncc12 + Cc1nc(Nc2ncc(C(=O)Nc3c(C)cccc3Cl)s2)cc(N2CCN(CCO)CC2)n1 [dasatanib] (first compound 0.4 µM, partner dose 0.004 µM)",222%,465%,331%,185%,103%,85.6%,180%,210%,187%,183%,193%,100%,76.2%,126%,163%,71.3%,149%,103%,34%
"CN1CCN(c2ccc3nc(-c4c(N)c5c(F)cccc5[nH]c4=O)[nH]c3c2)CC1 [Dovitinib] + Cn1cc(/C=C2\C(=O)Nc3cccnc32)c2ccccc21 [GW441756] (first compound 0.1 µM, partner dose 0.4 µM)",76.8%,22.6%,148%,–,115%,295%,112%,88.9%,88.6%,–,139%,179%,53.4%,170%,92.3%,85.9%,73.5%,65.7%,–
"CO[C@H]1C[C@@H]2CC[C@@H](C)[C@@](O)(O2)C(=O)C(=O)N2CCCC[C@H]2C(=O)O[C@H]([C@H](C)C[C@@H]2CC[C@@H](OCCO)[C@H](OC)C2)CC(=O)[C@H](C)/C=C(\C)[C@@H](O)[C@@H](OC)C(=O)[C@H](C)C[C@H](C)/C=C/C=C/C=C/1C [everolimus] + COc1cc(N2CCC(N3CCN(C)CC3)CC2)ccc1Nc1ncc(Cl)c(Nc2ccccc2S(=O)(=O)C(C)C)n1 [NVP-TAE684] (first compound 0.02 µM, partner dose 0.08 µM)",148%,32.2%,212%,–,221%,174%,110%,18.4%,98.3%,–,230%,248%,52.3%,159%,121%,203%,101%,140%,–
"Cn1c(=O)n(-c2ccc(C(C)(C)C#N)cc2)c2c3cc(-c4cnc5ccccc5c4)ccc3ncc21 + COc1ccc2c(c1)CCC1C2CCC2(C)C(NCCCCCCN3C(=O)C=CC3=O)CCC12 [U73122] (first compound 0.004 µM, partner dose 0.4 µM)",68.8%,39.7%,82.9%,–,128%,146%,213%,67.6%,252%,–,50.8%,109%,147%,15.1%,73.1%,60.3%,69.4%,87.1%,–
"Cn1c(=O)n(-c2ccc(C(C)(C)C#N)cc2)c2c3cc(-c4cnc5ccccc5c4)ccc3ncc21 + COc1cc(N2CCC(N3CCN(C)CC3)CC2)ccc1Nc1ncc(Cl)c(Nc2ccccc2S(=O)(=O)C(C)C)n1 [NVP-TAE684] (first compound 0.004 µM, partner dose 0.08 µM)",89.4%,43.4%,181%,–,49.9%,66.8%,99.5%,57.7%,82.1%,–,151%,57.8%,184%,62.3%,50.2%,101%,63.9%,158%,–
